Test results published in ChEMBL document CHEMBL4316593 (Eur J Med Chem, 2019).
Further values from the same series stand in other lists.

Assays:
Format in all cases: cell-based
Conditions in all cases: U-87MG ATCC
[1] = Inhibition of RTK/PI3K/AKT/mTOR signaling in human U87 cells assessed as up regulation of DENN domain containing 5A gene expression at cytotoxic IC50 measured after 48 hrs relative to control
[2] = Inhibition of RTK/PI3K/AKT/mTOR signaling in human U87 cells assessed as up regulation of CD320 molecule gene expression at cytotoxic IC50 measured after 48 hrs relative to control
[3] = Inhibition of RTK/PI3K/AKT/mTOR signaling in human U87 cells assessed as down regulation of OSTM1 gene expression at cytotoxic IC50 measured after 48 hrs relative to control
[4] = Inhibition of RTK/PI3K/AKT/mTOR signaling in human U87 cells assessed as down regulation of SERINC1 gene expression at cytotoxic IC50 measured after 48 hrs relative to control
[5] = Inhibition of RTK/PI3K/AKT/mTOR signaling in human U87 cells assessed as up regulation of 1-acylglycerol-3-phosphate O-acyltransferase 4 gene expression at cytotoxic IC50 measured after 48 hrs relative to control
[6] = Inhibition of RTK/PI3K/AKT/mTOR signaling in human U87 cells assessed as up regulation of LSM14A gene expression at cytotoxic IC50 measured after 48 hrs relative to control
[7] = Inhibition of RTK/PI3K/AKT/mTOR signaling in human U87 cells assessed as up regulation of transmembrane protein 67 gene expression at cytotoxic IC50 measured after 48 hrs relative to control
[8] = Inhibition of RTK/PI3K/AKT/mTOR signaling in human U87 cells assessed as down regulation of ZUFSP gene expression at cytotoxic IC50 measured after 48 hrs relative to control
[9] = Inhibition of RTK/PI3K/AKT/mTOR signaling in human U87 cells assessed as up regulation of nestin gene expression at cytotoxic IC50 measured after 48 hrs relative to control
[10] = Inhibition of RTK/PI3K/AKT/mTOR signaling in human U87 cells assessed as up regulation of shroom family member 3 gene expression at cytotoxic IC50 measured after 48 hrs relative to control
[11] = Inhibition of RTK/PI3K/AKT/mTOR signaling in human U87 cells assessed as down regulation of TRAPPC9 gene expression at cytotoxic IC50 measured after 48 hrs relative to control
[12] = Inhibition of RTK/PI3K/AKT/mTOR signaling in human U87 cells assessed as down regulation of SPRR2D gene expression at cytotoxic IC50 measured after 48 hrs relative to control
[13] = Inhibition of RTK/PI3K/AKT/mTOR signaling in human U87 cells assessed as down regulation of EXOSC9 gene expression at cytotoxic IC50 measured after 48 hrs relative to control
[14] = Inhibition of RTK/PI3K/AKT/mTOR signaling in human U87 cells assessed as down regulation of ELMSAN1 gene expression at cytotoxic IC50 measured after 48 hrs relative to control
[15] = Inhibition of RTK/PI3K/AKT/mTOR signaling in human U87 cells assessed as down regulation of MOCS1 gene expression at cytotoxic IC50 measured after 48 hrs relative to control
[16] = Inhibition of RTK/PI3K/AKT/mTOR signaling in human U87 cells assessed as up regulation of TMEM123 gene expression at cytotoxic IC50 measured after 48 hrs relative to control
[17] = Inhibition of RTK/PI3K/AKT/mTOR signaling in human U87 cells assessed as up regulation of PER3 gene expression at cytotoxic IC50 measured after 48 hrs relative to control
[18] = Inhibition of RTK/PI3K/AKT/mTOR signaling in human U87 cells assessed as up regulation of Ras association domain family member 3 gene expression at cytotoxic IC50 measured after 48 hrs relative to control
[19] = Inhibition of RTK/PI3K/AKT/mTOR signaling in human U87 cells assessed as up regulation of transmembrane protein 53 gene expression at cytotoxic IC50 measured after 48 hrs relative to control
[20] = Inhibition of RTK/PI3K/AKT/mTOR signaling in human U87 cells assessed as up regulation of RPS18 gene expression at cytotoxic IC50 measured after 48 hrs relative to control
[21] = Inhibition of RTK/PI3K/AKT/mTOR signaling in human U87 cells assessed as down regulation of MYL12A gene expression at cytotoxic IC50 measured after 48 hrs relative to control
[22] = Inhibition of RTK/PI3K/AKT/mTOR signaling in human U87 cells assessed as up regulation of AKAP12 gene expression at cytotoxic IC50 measured after 48 hrs relative to control
[23] = Inhibition of RTK/PI3K/AKT/mTOR signaling in human U87 cells assessed as up regulation of ATP binding cassette subfamily C member 2 gene expression at cytotoxic IC50 measured after 48 hrs relative to control
[24] = Inhibition of RTK/PI3K/AKT/mTOR signaling in human U87 cells assessed as down regulation of HNRNPA2B1 gene expression at cytotoxic IC50 measured after 48 hrs relative to control
[25] = Inhibition of RTK/PI3K/AKT/mTOR signaling in human U87 cells assessed as down regulation of TGOLN2 gene expression at cytotoxic IC50 measured after 48 hrs relative to control
[26] = Inhibition of RTK/PI3K/AKT/mTOR signaling in human U87 cells assessed as up regulation of Rho guanine nucleotide exchange factor 19 gene expression at cytotoxic IC50 measured after 48 hrs relative to control
[27] = Inhibition of RTK/PI3K/AKT/mTOR signaling in human U87 cells assessed as down regulation of ASB6 gene expression at cytotoxic IC50 measured after 48 hrs relative to control
[28] = Inhibition of RTK/PI3K/AKT/mTOR signaling in human U87 cells assessed as down regulation of TBCE gene expression at cytotoxic IC50 measured after 48 hrs relative to control
[29] = Inhibition of RTK/PI3K/AKT/mTOR signaling in human U87 cells assessed as down regulation of PPP2R1B gene expression at cytotoxic IC50 measured after 48 hrs relative to control
[30] = Inhibition of RTK/PI3K/AKT/mTOR signaling in human U87 cells assessed as down regulation of WRAP53 gene expression at cytotoxic IC50 measured after 48 hrs relative to control
[31] = Inhibition of RTK/PI3K/AKT/mTOR signaling in human U87 cells assessed as up regulation of claudin 7 gene expression at cytotoxic IC50 measured after 48 hrs relative to control
[32] = Inhibition of RTK/PI3K/AKT/mTOR signaling in human U87 cells assessed as up regulation of NUDT21 gene expression at cytotoxic IC50 measured after 48 hrs relative to control

With `CC(=O)C(=NNc1ccccc1C#N)C(C)=O` the log2FC [1] was 0.698, the log2FC [2] was 1.1 and the log2FC [3] was -1.32. For the same molecule, the log2FC [4] was -0.625, the log2FC [5] was 1.17 and the log2FC [6] was 0.488. It also gave a log2FC [7] of 1.19, a log2FC [8] of -0.894 and a log2FC [9] of 1.01. For the same molecule, the log2FC [10] was 0.977, the log2FC [11] was -0.605 and the log2FC [12] was -7.91. It also gave a log2FC [13] of -0.731, a log2FC [14] of -1.26 and a log2FC [15] of -0.992. It also gave a log2FC [16] of 0.534, a log2FC [17] of 2.22 and a log2FC [18] of 1.13. It also gave a log2FC [19] of 1.38, a log2FC [20] of 0.387 and a log2FC [21] of -0.418. It also gave a log2FC [22] of 2.38, a log2FC [23] of 1.42 and a log2FC [24] of -0.359. It also gave a log2FC [25] of -0.647, a log2FC [26] of 1.44 and a log2FC [27] of -1.05. The log2FC [28] was -0.953, the log2FC [29] was -1.31 and the log2FC [30] was -0.835. The log2FC [31] was 0.93 and the log2FC [32] was 0.557.
